Read-outs that look alike come from different tables or passages of the source. No constants are given. Whether binding was seen depends on the method and setting. In cells and extracts the contact can be indirect. Here binding means that the protein was enriched with, or labelled near, the bait; the list need not be complete.
Legend:
Experiment in all cases: proximity labelling
[1] = target: neuropilin-1 (human (endogenous in PPC1)) (UniProt O14786)
[2] = target: neuropilin-1 (human (endogenous in PPC1)) (UniProt O14786); remark: listed apart in the source
[3] = target: neuropilin-1 (human (endogenous in PPC1)) (UniProt O14786); remark: listed apart in the source

Protein sequences, listed by entry. Tags and fused reporters are not part of them. Residues count along the entry.
UniProt O14786, residues 22-923: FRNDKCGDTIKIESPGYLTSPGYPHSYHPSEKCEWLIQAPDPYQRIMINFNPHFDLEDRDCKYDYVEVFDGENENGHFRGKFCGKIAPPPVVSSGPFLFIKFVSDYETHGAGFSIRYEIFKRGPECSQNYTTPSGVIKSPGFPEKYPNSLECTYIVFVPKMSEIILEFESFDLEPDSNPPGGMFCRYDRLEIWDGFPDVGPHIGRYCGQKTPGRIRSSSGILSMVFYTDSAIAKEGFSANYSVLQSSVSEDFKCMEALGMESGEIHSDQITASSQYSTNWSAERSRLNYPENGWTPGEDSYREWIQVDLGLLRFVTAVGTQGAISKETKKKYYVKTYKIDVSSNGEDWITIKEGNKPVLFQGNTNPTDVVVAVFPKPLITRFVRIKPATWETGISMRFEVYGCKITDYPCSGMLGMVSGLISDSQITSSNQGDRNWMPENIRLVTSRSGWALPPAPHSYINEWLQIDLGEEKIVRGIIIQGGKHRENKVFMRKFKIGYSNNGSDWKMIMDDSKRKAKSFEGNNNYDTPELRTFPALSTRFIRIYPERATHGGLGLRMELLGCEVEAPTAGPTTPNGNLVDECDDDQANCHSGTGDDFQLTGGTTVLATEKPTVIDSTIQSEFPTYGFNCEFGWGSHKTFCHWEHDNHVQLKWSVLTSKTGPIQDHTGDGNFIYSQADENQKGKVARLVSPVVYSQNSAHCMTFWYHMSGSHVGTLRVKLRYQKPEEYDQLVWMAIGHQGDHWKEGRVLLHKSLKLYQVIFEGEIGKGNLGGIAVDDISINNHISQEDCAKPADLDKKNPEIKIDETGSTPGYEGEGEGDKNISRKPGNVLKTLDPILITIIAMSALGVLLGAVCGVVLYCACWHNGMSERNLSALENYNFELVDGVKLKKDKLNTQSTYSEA

binding [1]: binds
binding [2]: binds
binding [3]: binds
Binder: RPARPAR (biotin-ahx on the N-terminus; free C-terminus (-OH)) [RPAR-HRP: Biotin-ahx-RPARPAR-OH on streptavidin–horseradish peroxidase]

From paper doi:10.1101/2025.06.14.659695
